Patent publication US6781015B2, “Aminobenzophenones and photopolymerizable compositions including the same” (Albemarle Corporation, priority 1997, dated 2004)

Test: UV curing of hexanediol diacrylate compositions (photoinitiator activity)
Conditions: 1% aminobenzophenone compound in hexanediol diacrylate composition, 0.15 inch film, Fusion "H" bulb 600 Watts/inch, belt speed 55 feet per minute

Structure (SMILES)	Passes under the lamp to obtain a well-cured hard polymer [passes]
CCN(C)c1ccc(C(=O)c2ccc(N(C)CC)cc2)cc1 [MEAB, 4,4′-bis(methylethylamino)benzophenone]	10
CCN(CC)c1ccc(C(=O)c2ccc(N(CC)CC)cc2)cc1 [TEMK, 4,4′-bis(diethylamino)benzophenone]	25
CN(C)c1ccc(C(=O)c2ccc(N(C)C)cc2)cc1 [TMMK, 4,4′-bis(dimethylamino)benzophenone]	10
